# Results taken from PubChem BioAssay AID314 (DTP/NCI, 2004).
# The list is a part of this screen's results and no random one: it gathers tests that were run many times, whatever their T/C, doses with no T/C, and many T/C values between a quarter and a half above the control. Further doses and runs are listed elsewhere. T/C: endpoint of the treated group in % of that of the vehicle group. Some doses have a count of surviving animals in place of a T/C: the source files T/C as zero there, which appears to mark a toxic dose or a test without result, not a measured value. Some survivor counts are full or nearly so, which does not show that the dose was tolerated: survival well below the control is almost never listed, so the zero probably covers shortened survival too. Counts of survivors are from the toxicity check (mostly the fifth day) where no day follows; animals may have died later. Schedules are NCI's codes, taken here to give the interval after Q, in days (D) or hours (H), and the number of doses after X. Some entries were tested several times; the values are given in rising order. Some schedules carry Z or #; the key to these is not given. Where survival is the endpoint, this PubChem deposit counts one and a half times the control or more as active, and values a quarter to a half above the control carry no call in these data; other NCI protocols may use other cut-offs. Brackets with × stand for listed records that agree. Some T/C values carry the count of animals alive at the toxicity check (mostly the fifth day); without a count, all were alive then.
# Tested on: DBA/2 mice, P1534 leukemia ip, survival T/C
# Assay: NCI In Vivo Anticancer Drug Screen. Data for tumor model P1534 Leukemia (intraperitoneal) in DBA/2 mice
# Details: T/C endpoint: mean survival time, higher T/C = longer survival
# Method: The antitumor activity of compounds was measured in mice bearing transplantable tumors. Survival or tumor size were measured and the results are expressed as the measurement made in the treated group (T) divided by the measurement made in the vehicle treated control group (C). The tumor model used in this assay is P1534 Leukemia (intraperitoneal) in DBA/2 mice
# [1] = dose: 0.5 mg/kg/injection, schedule: Q01DX010 (ip), vehicle: saline
# [2] = dose: 1.0 mg/kg/injection, schedule: Q01DX010 (ip), vehicle: saline
# [3] = dose: 12.5 mg/kg/injection, schedule: Q01DX010 (ip), vehicle: saline
# [4] = dose: 62.5 mg/kg/injection, schedule: Q01DX010 (ip), vehicle: saline
# [5] = dose: 125.0 mg/kg/injection, schedule: Q01DX010 (ip), vehicle: saline
# [6] = dose: 32.0 mg/kg/injection, schedule: Q01DX010 (ip), vehicle: saline
# [7] = dose: 128.0 mg/kg/injection, schedule: Q01DX010 (ip), vehicle: saline
# [8] = dose: 500.0 mg/kg/injection, schedule: Q01DX010 (ip), vehicle: saline
# [9] = dose: 25.0 mg/kg/injection, schedule: Q01DX010 (ip), vehicle: saline
# [10] = dose: 100.0 mg/kg/injection, schedule: Q01DX010 (ip), vehicle: saline
# [11] = dose: 64.0 mg/kg/injection, schedule: Q01DX010 (ip), vehicle: saline
# [12] = dose: 250.0 mg/kg/injection, schedule: Q01DX010 (ip), vehicle: saline
# [13] = dose: 20.0 mg/kg/injection, schedule: Q01DX010 (ip), vehicle: saline
# [14] = dose: 40.0 mg/kg/injection, schedule: Q01DX010 (ip), vehicle: saline
# [15] = dose: 50.0 mg/kg/injection, schedule: Q01DX010 (ip), vehicle: saline
# [16] = dose: 80.0 mg/kg/injection, schedule: Q01DX010 (ip), vehicle: saline
# [17] = dose: 1000.0 mg/kg/injection, schedule: Q01DX010 (ip), vehicle: saline
# [18] = dose: 10.0 mg/kg/injection, schedule: Q01DX010 (ip), vehicle: saline
# [19] = dose: 4.4 mg/kg/injection, schedule: Q## X001 (ip), vehicle: saline
# [20] = dose: 6.5 mg/kg/injection, schedule: Q## X001 (ip), vehicle: saline
smiles,measurement,setting,value
CC(=O)c1cccc(NC2C(N)C(NC(=O)N(C)C)(C(C)O)C(C)(O)C2(O)COC(=O)c2c(C)cccc2O)c1 (stereo unspecified),survivor count,[1],6 of 6
same,survivor count,[2],5 of 6
same,survivor count,"dose: 2.0 mg/kg/injection, schedule: Q01DX010 (ip), vehicle: saline",0 of 6
O=NN(CCCl)C(=O)NCCCl,survivor count,"dose: 6.25 mg/kg/injection, schedule: Q01DX010 (ip), vehicle: saline",6 of 6
same,survivor count,[3],5 of 6 and 6 of 6
CN(C)Cc1c[nH]c2ccccc12,survivor count,[4],4 of 6
same,survivor count,[5],0 of 6
COC1C(OC(N)=O)C(O)C(Oc2ccc3c(O)c(NC(=O)c4ccc(O)c(CC=C(C)C)c4)c(=O)oc3c2C)OC1(C)C (stereo unspecified),survivor count,"dose: 400.0 mg/kg/injection, schedule: Q01DX010 (ip), vehicle: saline",0 of 6
CC(=O)O[C@]1(C(C)=O)CC[C@H]2[C@@H]3C[C@H](C)C4=CC(=O)C=C[C@]4(C)[C@@]3(F)[C@@H](O)C[C@@]21C,survivor count,"dose: 25.0 mg/kg/injection, schedule: Q01DX010 (sc), vehicle: steroid suspending solution",6 of 6
same,survivor count,"dose: 50.0 mg/kg/injection, schedule: Q01DX010 (sc), vehicle: steroid suspending solution",6 of 6
same,survivor count,"dose: 100.0 mg/kg/injection, schedule: Q01DX010 (sc), vehicle: steroid suspending solution",5 of 6
NCCCCCCNC(=O)CCC(=O)NCCCCCCN,survivor count,[6],5 of 6
same,survivor count,[7],4 of 6
O=C(OCC1OC(n2cnc3c(=S)nc[nH]c32)C(OC(=O)c2ccccc2)C1OC(=O)c1ccccc1)c1ccccc1 (stereo unspecified),survivor count,[4],4 of 6
same,survivor count,[8],5 of 6
COS(C)(=O)=O,survivor count,[9],6 of 6
same,survivor count,[10],6 of 6
Nc1nc(SCc2ccccc2)c2[nH]cnc2n1,survivor count,[4],6 of 6
same,survivor count,[11],6 of 6
same,survivor count,[5],6 of 6
same,survivor count,[12],6 of 6
CSc1ncnc2c1ncn2C1OC(CO)C(O)C1O (stereo unspecified),survivor count,[6],5 of 6 and 6 of 6
CC[n+]1c(-c2ccccc2)c2cc(N)ccc2c2ccc(N)cc21,survivor count,[13],4 of 6
same,survivor count,[14],0 of 6
O[C@H](CN1CC1)[C@@H](O)CN1CC1,T/C,"dose: 0.12 mg/kg/injection, schedule: Q01DX010 (ip), vehicle: saline",142 % of control
same,survivor count,[1],6 of 6
same,survivor count,[2],6 of 6
CCOC(=O)NP(=O)(N1CC1(C)C)N1CC1(C)C (stereo unspecified),survivor count,[12],6 of 6
CCc1c(CC(=O)O)c2cc(C)ccc2n1Cc1ccc(Cl)cc1,survivor count,[3],6 of 6
same,survivor count,[9],6 of 6
same,survivor count,[15],5 of 6
same,survivor count,[10],4 of 6
COC1=C(N)C(=O)c2nc(-c3nc(C(=O)O)c(C)c(-c4ccc(OC)c(OC)c4O)c3N)ccc2C1=O,survivor count,"dose: 0.2 mg/kg/injection, schedule: Q01DX010 (ip), vehicle: other",5 of 6
same,survivor count,"dose: 0.3 mg/kg/injection, schedule: Q01DX010 (ip), vehicle: other",5 of 6
same,survivor count,"dose: 0.45 mg/kg/injection, schedule: Q01DX010 (ip), vehicle: other",6 of 6
same,survivor count,"dose: 0.66 mg/kg/injection, schedule: Q01DX010 (ip), vehicle: other",4 of 6
CC1CCOS(=O)O1 (stereo unspecified),survivor count,[14],6 of 6
same,survivor count,[16],5 of 6
CN[C@H]1CCc2cc(OC)c(OC)c(OC)c2-c2ccc(OC)c(=O)cc21,survivor count,"dose: 1.57 mg/kg/injection, schedule: Q01DX010 (ip), vehicle: other",6 of 6
same,survivor count,"dose: 2.5 mg/kg/injection, schedule: Q01DX010 (ip), vehicle: other",6 of 6
same,survivor count,"dose: 3.13 mg/kg/injection, schedule: Q01DX010 (ip), vehicle: other",5 of 6
same,survivor count,"dose: 5.0 mg/kg/injection, schedule: Q01DX010 (ip), vehicle: other",6 of 6
same,survivor count,"dose: 6.25 mg/kg/injection, schedule: Q01DX010 (ip), vehicle: other",6 of 6
same,survivor count,"dose: 12.5 mg/kg/injection, schedule: Q01DX010 (ip), vehicle: other",4 of 6
O=CCC(O)C(O)C(O)CO (stereo unspecified),survivor count,[17],6 of 6
O=c1[nH]c(=O)n(C2CC(O)C(CO)O2)cc1F (stereo unspecified),T/C,[18],126 % of control (2×)
same,T/C,[13],134 % of control
same,T/C,"dose: 37.5 mg/kg/injection, schedule: Q01DX010 (ip), vehicle: saline",139 % of control
same,survivor count,"dose: 75.0 mg/kg/injection, schedule: Q01DX010 (ip), vehicle: saline",6 of 6
same,survivor count,"dose: 150.0 mg/kg/injection, schedule: Q01DX010 (ip), vehicle: saline",6 of 6
CN(Cc1cnc2nc(N)nc(N)c2n1)c1c(Cl)cc(C(=O)NC(CCC(=O)O)C(=O)O)cc1Cl (stereo unspecified),survivor count,"dose: 5.0 mg/kg/injection, schedule: Q01DX010 (ip), vehicle: saline",6 of 6
same,T/C,[18],125 % of control
same,survivor count,[18],6 of 6
same,survivor count,[13],6 of 6
same,survivor count,[14],6 of 6
same,survivor count,[16],5 of 6
CSc1ncnc2nc[nH]c12,survivor count,[3],6 of 6
same,survivor count,[9],6 of 6
same,survivor count,[15],5 of 6 and 6 of 6
COC12C(COC(N)=O)C3=C(C(=O)C(C)=C(N)C3=O)N1CC1C2N1C (stereo unspecified),survivor count,"dose: 20.0 mg/kg/injection, schedule: Q01DX010 (sc), vehicle: saline",6 of 6
c1ccc(CCSc2ncnc3nc[nH]c23)cc1,survivor count,[17],3 of 6
O=C(Nc1ccc(C2=NCCN2)cc1)c1ccc(C(=O)Nc2ccc(C3=NCCN3)cc2)c(Cl)c1,survivor count,[11],2 of 6 and 3 of 6
same,survivor count,[7],0 of 6
Nc1ncccc1C(=O)O,survivor count,[5],4 of 6
same,survivor count,[12],6 of 6
same,survivor count,[8],5 of 6
CC[C@]1(O)C[C@H]2CN(CCc3c([nH]c4ccccc34)[C@@](C(=O)OC)(c3cc4c(cc3OC)N(C=O)[C@H]3[C@@](O)(C(=O)OC)[C@H](OC(C)=O)[C@]5(CC)C=CCN6CC[C@]43[C@@H]65)C2)C1,T/C,"dose: 1.3 mg/kg/injection, schedule: Q## X001 (ip), vehicle: saline","140, 152, 153, 155 [9 of 10 alive], 160, 161, 162, 165, 170, 211, 230, 238, 252, 254 % of control (2×)"
same,T/C,"dose: 1.9 mg/kg/injection, schedule: Q## X001 (ip), vehicle: saline","129, 138, 142, 145, 156, 159, 163 [9 of 10 alive], 209, 212, 223 [9 of 10 alive], 225 (2×), 241 [8 of 9 alive], 254 [9 of 10 alive], 271 % of control"
same,T/C,"dose: 2.9 mg/kg/injection, schedule: Q## X001 (ip), vehicle: saline","111 [9 of 10 alive], 121, 137 [9 of 10 alive], 140, 148 [9 of 10 alive], 166, 166 [9 of 10 alive] (2×), 207, 211, 221 [6 of 9 alive], 241 (2×), 245 [9 of 10 alive], 254 % of control [8 of 10 alive]"
same,T/C,[19],"89 [9 of 10 alive], 92 [9 of 10 alive], 94 [7 of 10 alive], 115 [9 of 10 alive], 119 [6 of 9 alive], 120, 125 [9 of 10 alive], 144 [9 of 10 alive], 148, 154 [9 of 10 alive], 169 [8 of 10 alive], 169 [9 of 10 alive], 175, 207 % of control [8 of 10 alive]"
same,survivor count,[19],5 of 10
same,T/C,[20],"91 [8 of 10 alive], 92 [8 of 10 alive], 100 [9 of 10 alive], 108, 113 [9 of 10 alive], 130 [9 of 10 alive], 162 [8 of 10 alive], 169 % of control [7 of 9 alive]"
same,survivor count,[20],"2 of 10, 4 of 10, 5 of 10, 6 of 10, 7 of 10, 8 of 10"
same,T/C,"dose: 62.5 micrograms/kg/injection, schedule: Q01DX010 (ip), vehicle: saline",128 % of control
same,T/C,"dose: 125.0 micrograms/kg/injection, schedule: Q01DX010 (ip), vehicle: saline",132 % of control
S=P(N1CC1)(N1CC1)N1CC1,survivor count,[2],6 of 6
